No constants are given. Whether binding was seen depends on the method and setting. Some binding calls cover weakened binding; strength is not graded here.
Target: human aldehyde dehydrogenase 1A3 (human) (UniProt P47895)
Experiment: crystal structure; X-ray, 2.9 Å, space group P21, eight chains per asymmetric unit arranged as two independent tetramers; protein pre-incubated with 1 mM NAD+ and 1 mM retinoic acid, 20% PEG 3350, 0.24 M Na2 malonate pH 7.0, 10 mM TCEP, 20 °C; both purified

B1: human aldehyde dehydrogenase 1A3 (enzyme, UniProt P47895 1-512, looked up)
chain: MATANGAVENGQPDRKPPALPRPIRNLEVKFTKIFINNEWHESKSGKKFATCNPSTREQICEVEEGDKPDVDKAVEAAQVAFQRGSPWRRLDALSRGRLLHQLADLVERDRATLAALETMDTGKPFLHAFFIDLEGCIRTLRYFAGWADKIQGKTIPTDDNVVCFTRHEPIGVCGAITPWNFPLLMLVWKLAPALCCGNTMVLKPAEQTPLTALYLGSLIKEAGFPPGVVNIVPGFGPTVGAAISSHPQINKIAFTGSTEVGKLVKEAASRSNLKRVTLELGGKNPCIVCADADLDLAVECAHQGVFFNQGQCCTAASRVFVEEQVYSEFVRRSVEYAKKRPVGDPFDVKTEQGPQIDQKQFDKILELIESGKKEGAKLECGGSAMEDKGLFIKPTVFSEVTDNMRIAKEEIFGPVQPILKFKSIEEVIKRANSTDYGLTAAVFTKNLDKALKLASALESGTVWINCYNALYAQAPFGGFKMSGNGRELGEYALAEYTEVKTVTIKLGDKNP
notes: human ALDH1A3, full-length open reading frame amplified from cDNA of the mesenchymal glioma stem cell line 83 and cloned into pDEST17; predicted molecular weight 56108 Da; Crystallised after pre-incubation with 1 mM NAD+ and 1 mM all-trans retinoic acid; No removal of the His tag is described; In the crystal no density for the N-terminal portion and the last four residues; also called ALDH1A3; …
binding: binds
